Results are given in words; binding and its absence hold for the method and conditions named. In cells and extracts the contact can be indirect. Some binding calls cover weakened binding; strength is not graded here.
B1: MED6 (protein, UniProt O75586 1-246)
chain: MAAVDIRDNLLGISWVDSSWIPILNSGSVLDYFSERSNPFYDRTCNNEVVKMQRLTLEHLNQMVGIEYILLHAQEPILFIIRKQQRQSPAQVIPLADYYIIAGVIYQAPDLGSVINSRVLTAVHGIQSAFDEAMSYCRYHPSKGYWWHFKDHEEQDKVRPKAKRKEEPSSIFQRQRVDALLLDLRQKFPPKFVQLKPGEKPVPVDQTKKEAEPIPETVKPEEKETTKNVQQTVSAKGPPEKRMRLQ
B2: MED8 (protein, UniProt Q96G25 1-268)
chain: MQREEKQLEASLDALLSQVADLKNSLGSFICKLENEYGRLTWPSVLDSFALLSGQLNTLNKVLKHEKTPLFRNQVIIPLVLSPDRDEDLMRQTEGRVPVFSHEVVPDHLRTKPDPEVEEQEKQLTTDAARIGADAAQKQIQSLNKMCSNLLEKISKEERESESGGLRPNKQTFNPTDTNALVAAVAFGKGLSNWRPSGSSGPGQAGQPGAGTILAGTSGLQQVQMAGAPSQQQPMLSGVQMAQAGQPGKMPSGIKTNIKSASMHPYQR
B3: MED4 (protein, UniProt Q9NPJ6 1-270)
chain: MAASSSGEKEKERLGGGLGVAGGNSTRERLLSALEDLEVLSRELIEMLAISRNQKLLQAGEENQVLELLIHRDGEFQELMKLALNQGKIHHEMQVLEKEVEKRDSDIQQLQKQLKEAEQILATAVYQAKEKLKSIEKARKGAISSEEIIKYAHRISASNAVCAPLTWVPGDPRRPYPTDLEMRSGLLGQMNNPSTNGVNGHLPGDALAAGRLPDVLAPQYPWQSNDMSMNMLPPNHSSDFLLEPPGHNKENEDDVEIMSTDSSSSSSESD
B4: cyclin-dependent kinase 8, P49336 1-464 (protein)
chain: MDYDFKVKLSSERERVEDLFEYEGCKVGRGTYGHVYKAKRKDGKDDKDYALKQIEGTGISMSACREIALLRELKHPNVISLQKVFLSHADRKVWLLFDYAEHDLWHIIKFHRASKANKKPVQLPRGMVKSLLYQILDGIHYLHANWVLHRDLKPANILVMGEGPERGRVKIADMGFARLFNSPLKPLADLDPVVVTFWYRAPELLLGARHYTKAIDIWAIGCIFAELLTSEPIFHCRQEDIKTSNPYHHDQLDRIFNVMGFPADKDWEDIKKMPEHSTLMKDFRRNTYTNCSLIKYMEKHKVKPDSKAFHLLQKLLTMDPIKRITSEQAMQDPYFLEDPLPTSDVFAGCQIPYPKREFLTEEEPDDKGDKKNQQQQQGNNHTNGTGHPGNQDSSHTQGPPLKKVRVVPPTTTSGGLIMTSDYQRSNPHAAYPNPGPSTSQPQSSMGYSATSQQPPQYSHQTHRY

Sequences of proteins named here, by UniProt entry; tags and fusion partners are left off.
UniProt Q15648: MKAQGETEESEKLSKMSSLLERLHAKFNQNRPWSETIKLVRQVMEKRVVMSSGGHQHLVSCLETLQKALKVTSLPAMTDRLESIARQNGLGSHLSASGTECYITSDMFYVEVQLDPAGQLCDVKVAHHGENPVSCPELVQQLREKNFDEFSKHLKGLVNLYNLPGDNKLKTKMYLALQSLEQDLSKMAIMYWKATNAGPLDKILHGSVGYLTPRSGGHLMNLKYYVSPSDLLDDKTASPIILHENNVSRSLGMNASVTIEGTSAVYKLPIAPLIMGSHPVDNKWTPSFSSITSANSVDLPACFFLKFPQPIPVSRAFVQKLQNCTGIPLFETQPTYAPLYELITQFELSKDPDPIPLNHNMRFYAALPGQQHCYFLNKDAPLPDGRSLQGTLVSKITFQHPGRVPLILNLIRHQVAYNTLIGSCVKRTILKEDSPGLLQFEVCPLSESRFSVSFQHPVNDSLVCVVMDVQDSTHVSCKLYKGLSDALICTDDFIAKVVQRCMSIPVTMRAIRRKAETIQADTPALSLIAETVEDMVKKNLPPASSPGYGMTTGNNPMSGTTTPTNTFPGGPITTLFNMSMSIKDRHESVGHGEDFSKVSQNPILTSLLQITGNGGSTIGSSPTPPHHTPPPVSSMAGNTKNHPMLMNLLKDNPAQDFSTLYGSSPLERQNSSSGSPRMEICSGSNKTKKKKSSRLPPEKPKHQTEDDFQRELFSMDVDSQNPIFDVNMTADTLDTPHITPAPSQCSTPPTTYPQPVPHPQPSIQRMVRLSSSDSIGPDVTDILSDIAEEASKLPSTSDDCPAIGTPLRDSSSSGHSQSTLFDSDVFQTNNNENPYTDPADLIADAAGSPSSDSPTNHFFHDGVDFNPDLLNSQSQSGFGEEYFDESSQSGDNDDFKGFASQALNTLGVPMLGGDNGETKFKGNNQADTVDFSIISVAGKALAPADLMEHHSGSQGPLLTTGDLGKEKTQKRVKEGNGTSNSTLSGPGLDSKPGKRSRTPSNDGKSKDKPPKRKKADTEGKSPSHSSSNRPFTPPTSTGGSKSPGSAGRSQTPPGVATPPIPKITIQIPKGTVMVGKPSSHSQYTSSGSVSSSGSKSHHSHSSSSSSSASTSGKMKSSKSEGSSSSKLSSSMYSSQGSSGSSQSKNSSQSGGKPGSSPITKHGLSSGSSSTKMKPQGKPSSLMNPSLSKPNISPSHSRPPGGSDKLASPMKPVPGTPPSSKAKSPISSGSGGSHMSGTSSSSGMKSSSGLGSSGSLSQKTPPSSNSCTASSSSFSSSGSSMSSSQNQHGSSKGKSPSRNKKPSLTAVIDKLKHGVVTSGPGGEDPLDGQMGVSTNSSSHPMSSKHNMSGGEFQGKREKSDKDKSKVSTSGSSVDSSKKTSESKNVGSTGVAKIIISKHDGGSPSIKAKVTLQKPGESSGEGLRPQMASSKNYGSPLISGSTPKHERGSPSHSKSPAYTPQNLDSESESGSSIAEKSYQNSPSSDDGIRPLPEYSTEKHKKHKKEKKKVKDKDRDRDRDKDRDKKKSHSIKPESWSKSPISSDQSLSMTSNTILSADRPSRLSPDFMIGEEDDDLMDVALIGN

Experiments:
Test in all cases: co-IP; endogenous proteins in lysates of PC9 and A549 cells (20 mmol/L Tris-HCl pH 8.0, 10 mmol/L NaCl, 1 mmol/L EDTA, 0.5% NP-40); antibody or control IgG overnight at 4 °C, Protein G Dynabeads, Western blot; cells with or without silencing of MED13L
[1] = target: T1, MED4 (human (endogenous in PC9 and A549)) (UniProt Q9NPJ6)
T1 sequence: B3 chain

[2] = target: T2, MED8 (human (endogenous in PC9 and A549)) (UniProt Q96G25)
T2 sequence: B2 chain

[3] = target: MED1 (human (endogenous in PC9 and A549)) (UniProt Q15648)
[4] = target: T3, MED23 (human (endogenous in PC9 and A549)) (UniProt Q9ULK4)
T3 sequence: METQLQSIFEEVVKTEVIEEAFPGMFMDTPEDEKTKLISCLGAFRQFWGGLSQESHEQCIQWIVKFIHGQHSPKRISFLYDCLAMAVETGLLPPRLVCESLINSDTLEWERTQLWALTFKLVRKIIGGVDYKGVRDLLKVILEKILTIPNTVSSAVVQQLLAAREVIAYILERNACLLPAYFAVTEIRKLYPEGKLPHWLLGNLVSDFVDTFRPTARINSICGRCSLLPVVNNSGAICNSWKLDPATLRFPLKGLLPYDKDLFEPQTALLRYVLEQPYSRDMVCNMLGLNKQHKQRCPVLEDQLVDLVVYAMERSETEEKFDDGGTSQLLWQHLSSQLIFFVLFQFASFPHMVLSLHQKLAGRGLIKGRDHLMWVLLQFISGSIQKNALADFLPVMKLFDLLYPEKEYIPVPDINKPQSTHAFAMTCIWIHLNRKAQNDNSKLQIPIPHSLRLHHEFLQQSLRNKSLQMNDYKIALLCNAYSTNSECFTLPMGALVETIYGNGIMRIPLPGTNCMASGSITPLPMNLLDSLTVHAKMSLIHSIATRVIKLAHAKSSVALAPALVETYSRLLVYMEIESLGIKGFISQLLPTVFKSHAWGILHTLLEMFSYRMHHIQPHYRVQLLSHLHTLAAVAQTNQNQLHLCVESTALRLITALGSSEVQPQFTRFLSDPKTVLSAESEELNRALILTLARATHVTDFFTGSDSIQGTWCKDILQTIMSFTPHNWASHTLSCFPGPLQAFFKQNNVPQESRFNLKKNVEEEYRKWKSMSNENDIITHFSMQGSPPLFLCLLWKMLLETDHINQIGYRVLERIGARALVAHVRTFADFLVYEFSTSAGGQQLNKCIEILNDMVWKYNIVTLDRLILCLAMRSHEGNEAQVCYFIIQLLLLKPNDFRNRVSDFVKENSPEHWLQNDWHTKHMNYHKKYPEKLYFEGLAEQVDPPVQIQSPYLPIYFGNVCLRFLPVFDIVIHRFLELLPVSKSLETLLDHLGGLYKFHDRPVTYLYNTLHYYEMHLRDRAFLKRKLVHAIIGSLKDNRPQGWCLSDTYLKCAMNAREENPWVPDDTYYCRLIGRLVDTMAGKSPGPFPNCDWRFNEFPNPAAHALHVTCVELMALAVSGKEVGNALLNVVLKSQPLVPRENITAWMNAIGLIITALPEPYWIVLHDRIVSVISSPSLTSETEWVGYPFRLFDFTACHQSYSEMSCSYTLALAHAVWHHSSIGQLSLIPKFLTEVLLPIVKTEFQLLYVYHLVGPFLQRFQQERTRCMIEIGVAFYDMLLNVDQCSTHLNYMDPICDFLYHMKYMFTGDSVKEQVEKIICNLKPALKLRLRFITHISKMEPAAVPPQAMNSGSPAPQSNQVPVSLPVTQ

[5] = target: MED12 (human (endogenous in PC9 and A549)), Q93074; conditions: remark: other sources report otherwise

Binder | binding [1] | binding [2] | binding [3] | binding [4] | binding [5]
B1 | binds | binds | binds | binds | 
B2 | binds |  | binds | binds | 
B3 |  |  |  | binds | 
B4 |  |  |  |  | binds

Source: publication PMC7415817
